Source: article PMC6853952, “MUC4-ErbB2 Oncogenic Complex: Binding studies using Microscale Thermophoresis” (Scientific Reports, 2019)
No constants are given. Whether binding was seen depends on the method and setting.

Protein sequences, listed by entry. Tags and fused reporters are not part of them. Residues count along the entry.
UniProt Q15116, residues 25-288: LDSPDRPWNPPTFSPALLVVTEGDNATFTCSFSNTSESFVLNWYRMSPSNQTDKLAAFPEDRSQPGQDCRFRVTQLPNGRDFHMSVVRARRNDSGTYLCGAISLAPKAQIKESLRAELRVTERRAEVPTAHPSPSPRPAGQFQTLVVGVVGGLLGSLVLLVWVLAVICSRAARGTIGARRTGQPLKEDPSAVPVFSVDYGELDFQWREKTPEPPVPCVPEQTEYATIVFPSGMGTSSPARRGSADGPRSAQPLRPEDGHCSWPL

Molecular target: eGFP-PD-1 (non-relevant eGFP fusion protein) (UniProt Q15116)
Test: MST; normal model, optimised conditions: MPer lysate with the eGFP fusion kept constant around 33 nM, Fc protein titrated 1:1 in PBS with 0.05% P20 from 1 µM to 0.05 nM; 80% MST power, MST-on 30 s; blue LED; only the binder purified

binding: no binding (tested: Kd > 20 µM)
Substance: recombinant human ErbB2-Fc chimera (from UniProt P04626 23-652) (Fc fusion)
